# Results from one PubChem assay

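Plate-reader measure of the Venus reporter marking one vaccinia stage in infected cells (the cell line is not named here); read time unknown.
The test concentration is not given here.
Percent change in Venus reporter signal; lower (more negative) values mean stronger inhibition of that viral stage.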

Values are in %.
How 0% and 100% were set is not given here.
Common to all entries: measured here: Venus reporter, other viral stage.
This is a side read-out of the assay, for part of the compounds, not drawn at random.

Compound	activity change (Venus) (%)
Cc1ccc(S(=O)(=O)Nc2ccc3c(c2)C(=O)N([C@H](C)CO)C[C@H](C)[C@H](CN(C)Cc2ccc(C(F)(F)F)cc2)OCCCC[C@@H](C)O3)cc1	-63.04
O=C(c1cccc(F)c1)N1CCCCN2[C@H](CO)[C@H](c3ccc(/C=C/c4ccccc4)cc3)[C@@H]2C1	-52.91
C[C@@H]1CN([C@H](C)CO)S(=O)(=O)c2ccc(-c3ccccc3)cc2O[C@@H]1CN(C)C(=O)C1CCCCC1	-36.99
CC(C)CC#Cc1cnc2c(c1)C(=O)N([C@H](C)CO)C[C@H](C)[C@@H](CN(C)Cc1cccc(F)c1)O2	-36.61
COc1ccccc1-c1cnc2c(c1)C(=O)N([C@@H](C)CO)C[C@H](C)[C@@H](CN(C)Cc1cccc(F)c1)O2	-22.97
COc1cccc(CN(C)C[C@H]2OCc3ccccc3-c3c(n(C)c4ccccc34)C(=O)N([C@@H](C)CO)C[C@H]2C)c1	-76.97
C[C@H](CO)N1C[C@H](C)[C@@H](CN(C)Cc2ccc(-c3ccccc3)cc2)Oc2ccc(NS(=O)(=O)c3ccccc3)cc2CC1=O	-65.18
COc1ccc(S(=O)(=O)N(C)C[C@@H]2OCc3ccccc3-c3c(n(C)c4ccccc34)C(=O)N([C@H](C)CO)C[C@H]2C)cc1	-34.35
C[C@@H]1CN([C@@H](C)CO)C(=O)c2cc(NC(=O)Cc3cn(C)c4ccccc34)ccc2O[C@H]1CN(C)Cc1ccc(Oc2ccccc2)cc1	-32.96
CN1c2ccc(-c3ccccc3)cc2[C@@H]2[C@@H](CCN2C(=O)c2ccccc2)[C@H]1CO	-25.27
C[C@@H]1CCCCO[C@@H](CN(C)Cc2ccccc2)[C@H](C)CN([C@@H](C)CO)C(=O)c2cc(NS(=O)(=O)c3ccc(Cl)cc3)ccc2O1	-57.72
Cc1ccc(S(=O)(=O)Nc2ccc3c(c2)C(=O)N([C@H](C)CO)C[C@H](C)[C@H](CN(C)S(=O)(=O)c2ccccc2)OCCCC[C@H](C)O3)cc1	-28.91
Cc1cc(C(=O)Nc2ccc3c(c2)C(=O)N(C)[C@H]2CC[C@@H](CC(=O)NCc4ccc(-c5ccccc5)cc4)O[C@H]2CO3)no1	-24.62
Cc1ccccc1S(=O)(=O)N(C)C[C@@H]1OCc2ccccc2-c2c(n(C)c3ccccc23)C(=O)N([C@@H](C)CO)C[C@H]1C	-65.45
C[C@@H]1CCCCO[C@@H](CN(C)Cc2ccc3c(c2)OCO3)[C@H](C)CN([C@@H](C)CO)C(=O)c2cc(NC(=O)NC3CCCCC3)ccc2O1	-49.14
C[C@@H]1CN([C@H](C)CO)C(=O)c2cc(C#CC3CCCCC3)cnc2O[C@@H]1CN(C)S(=O)(=O)c1ccc(F)cc1	-33.87
C[C@H](CO)N1C[C@H](C)[C@@H](CN(C)C)Oc2cc(C#CC3CCCCC3)ccc2S1(=O)=O	-59.29
Cc1noc(C)c1NC(=O)Nc1ccc2c(c1)C(=O)N([C@@H](C)CO)C[C@H](C)[C@@H](CN(C)Cc1ccc(Cl)c(Cl)c1)OCCCC[C@H](C)O2	-64.35
C[C@H]1CN([C@@H](C)CO)C(=O)c2ccccc2-c2ccccc2CO[C@H]1CN(C)Cc1ccccc1C(F)(F)F	-78.76
C[C@H](CO)N1C[C@H](C)[C@H](CN(C)Cc2ccc(F)cc2)Oc2ncc(-c3cc4ccccc4o3)cc2C1=O	-20.39
C[C@@H]1CN([C@H](C)CO)C(=O)c2cccc(NS(=O)(=O)c3ccccc3)c2O[C@@H]1CN(C)Cc1ccc(Oc2ccccc2)cc1	-31.09
C=CCN1Cc2ccccc2[C@H]2OC(c3ccc(OCCCO)cc3)=N[C@@]2(CC=C)C1=O	-25.88
COc1ccc(-c2ccc3c(c2)[C@@H]2[C@@H](CCN2C(=O)NC2CCCC2)[C@H](CO)N3C)cc1	-34.46
C[C@@H]1CCCCO[C@@H](CN(C)Cc2ccccc2)[C@H](C)CN([C@@H](C)CO)C(=O)c2cc(NS(=O)(=O)c3ccc(F)cc3)ccc2O1	-40.89
CC(C)NC(=O)Nc1ccc2c(c1)C(=O)N([C@H](C)CO)C[C@H](C)[C@H](CN(C)Cc1ccc(C(F)(F)F)cc1)OCCCC[C@H](C)O2	-71.23
N#C[C@H]1[C@@H](c2ccc(-c3cccc(F)c3)cc2)[C@@H](CO)N1C(=O)NC1CCCCC1	-70.15
Cc1ccc(S(=O)(=O)N[C@H]2CC[C@@H](CCNC(=O)Nc3ccc(Cl)cc3)O[C@H]2CO)cc1	-34.66
C[C@H]1CCCCO[C@H](CN(C)Cc2ccc(C(F)(F)F)cc2)[C@@H](C)CN([C@@H](C)CO)C(=O)c2cc(NC(=O)CCC(F)(F)F)ccc2O1	-62.9
O=C1CN(S(=O)(=O)Cc2ccccc2)C[C@H]2[C@H](c3ccc(C#Cc4ccccc4)cc3)[C@H](CO)N12	-68.58
Cc1ccc(S(=O)(=O)N(C)C[C@@H]2Oc3ccc(NC(=O)CCC(F)(F)F)cc3CC(=O)N([C@H](C)CO)C[C@@H]2C)cc1	-42.48
O=C(CN1CCOCC1)N1CCCCN2[C@H](C1)[C@H](c1ccc(C#Cc3ccccc3)cc1)[C@@H]2CO	-83.4
O=S(=O)(N[C@H]1CC[C@H](CCn2cc(-c3cccc(F)c3)nn2)O[C@@H]1CO)c1ccc(Cl)cc1	-37.17
COc1ccccc1S(=O)(=O)N(C)C[C@H]1Oc2ncc(-c3ccc(C)cc3)cc2C(=O)N([C@H](C)CO)C[C@@H]1C	-18.51

The first 2 entries again:

Compound	activity change (Venus) (%)
Cc1ccc(S(=O)(=O)Nc2ccc3c(c2)C(=O)N([C@H](C)CO)C[C@H](C)[C@H](CN(C)Cc2ccc(C(F)(F)F)cc2)OCCCC[C@@H](C)O3)cc1	-63.04
O=C(c1cccc(F)c1)N1CCCCN2[C@H](CO)[C@H](c3ccc(/C=C/c4ccccc4)cc3)[C@@H]2C1	-52.91

From PubChem BioAssay record AID1053133 (Broad Institute, 2014).